Assay results taken from US7202221B2, “Macrolides” (Glaxo Group Limited, priority 2001, dated 2007).
Some of these results come from one statement about several compounds together. For at least one compound, name, drawing or mass did not settle the structure.

Columns and labels:
S. pyogenes 3565 = experiment: MIC determination (microtiter broth serial dilution test); format: cell-based, Streptococcus pyogenes
S. pneumoniae SP030 = experiment: as above; format: cell-based, Streptococcus pneumoniae
[1] = system: S. aureus Smith ATCC 13709; experiment: as above; format: cell-based, Staphylococcus aureus
[2] = system: erythromycin resistant strains of Streptococcus pneumoniae; experiment: MIC determination, erythromycin resistant strains; format: cell-based
E. faecalis ATCC 29212 = experiment: MIC determination (microtiter broth serial dilution test); format: cell-based
[3] = system: erythromycin resistant strains of Streptococcus pyogenes; experiment: MIC determination, erythromycin resistant strains; format: cell-based

Measured: MIC

CCC1OC(=O)C(C)C(OC2CC(C)(OC)C(OC(=O)CCNCCNc3cc4c(=O)c(C(=O)O)cn(C5CC5)c4cc3Cl)C(C)O2)C(C)C(OC2OC(C)CC(N(C)C)C2O)C(C)(O)CC(C)NC(=O)C(C)C(O)C1(C)O (stereo not drawn) [Example 1, 4″-O-[3-[[2-[(3-carboxy-7-chloro-1-cyclopropyl-1,4-dihydro-4-oxo-6-quinolinyl)amino]ethyl]amino]propionyl]-8a-aza-8a-homoerythromycin A]
< 0.25 µg/mL: [2] | [3]
≤ 1 µg/mL: all other assays above
